Results are given in words; binding and its absence hold for the method and conditions named. Binding seen in cells or lysates may run through a third protein.
Biological target: heat shock protein 60 (HSP60), endogenous in human prostate cancer cells (human (endogenous in LNCaP, PC-3, DU145)), P10809
Experiment: proximity ligation; cultured PCa cells (PC-3) and patient PCa specimens on a tissue microarray; also DCEM1-treated PC-3 cells and PC-3 xenograft tumors
Details: remark: other sources report otherwise

B1: LON peptidase 1 (LONP1), endogenous in PCa cells, P36776 68-959 (enzyme)
chain: FWEASSRGGGAFSGGEDASEGGAEEGAGGAGGSAGAGEGPVITALTPMTIPDVFPHLPLIAITRNPVFPRFIKIIEVKNKKLVELLRRKVRLAQPYVGVFLKRDDSNESDVVESLDEIYHTGTFAQIHEMQDLGDKLRMIVMGHRRVHISRQLEVEPEEPEAENKHKPRRKSKRGKKEAEDELSARHPAELAMEPTPELPAEVLMVEVENVVHEDFQVTEEVKALTAEIVKTIRDIIALNPLYRESVLQMMQAGQRVVDNPIYLSDMGAALTGAESHELQDVLEETNIPKRLYKALSLLKKEFELSKLQQRLGREVEEKIKQTHRKYLLQEQLKIIKKELGLEKDDKDAIEEKFRERLKELVVPKHVMDVVDEELSKLGLLDNHSSEFNVTRNYLDWLTSIPWGKYSNENLDLARAQAVLEEDHYGMEDVKKRILEFIAVSQLRGSTQGKILCFYGPPGVGKTSIARSIARALNREYFRFSVGGMTDVAEIKGHRRTYVGAMPGKIIQCLKKTKTENPLILIDEVDKIGRGYQGDPSSALLELLDPEQNANFLDHYLDVPVDLSKVLFICTANVTDTIPEPLRDRMEMINVSGYVAQEKLAIAERYLVPQARALCGLDESKAKLSSDVLTLLIKQYCRESGVRNLQKQVEKVLRKSAYKIVSGEAESVEVTPENLQDFVGKPVFTVERMYDVTPPGVVMGLAWTAMGGSTLFVETSLRRPQDKDAKGDKDGSLEVTGQLGEVMKESARIAYTFARAFLMQHAPANDYLVTSHIHLHVPEGATPKDGPSAGCTIVTALLSLAMGRPVRQNLAMTGEVSLTGKILPVGGIKEKTIAAKRAGVTCIVLPAENKKDFYDLAAFITEGLEVHFVEHYREIFDIAFPDEQAEALAVER
binding: no binding

— article PMC9246382
